Some results were stated once for a whole list of compounds, not compound by compound.
System: RAW264.7 rat macrophage cell line
Assay: MTT assay, normal cells RAW264.7
Type: cell-based
Conditions: text to Table 9
Text: The cytotoxicity against normal cells and cancer cells was confirmed using the MTT assay for the novel compounds KP2 to KP8 prepared in Example 1.
MTT assay method is as follows:
Normal cells (RAW264.7 rat macrophage cell line (osteoblast progenitor cell) and NIH3T3 mouse fibroblast line) and cancer cells (AGS human gastric cancer cell line, A549 human lung cancer cell line, HepG2 human liver cancer cell line, HCT116 human colon cancer cell line, PC3 human prostate cancer Cell line, Caki-1 human kidney cancer cell line, T24 human bladder cancer cell line, HT1080 human fibrosarcoma cell line, B16F10 mouse melanoma cell line) were cultured in 5% CO2 in 96-well plates containing DMEM with 10% FBS (fetal bovine serum). After incubation, KP2 to KP8 and controls (osmundacetone and 4-hydroxybenzalacetone) were added to the cell medium and incubated for 48 hours. Thereafter, 100 μl of MTT (0.5 mg/mL phosphate buffered saline) was added, followed by incubation for 2 hours. 100 μl of DMSO was added to each well, followed by incubation for 10 minutes, and the absorbance was measured at 550 nm using a microplate reader (SPCTRA MAX 340PC, Molecular Devices, USA). Absorbance is calculated by the formula below as an indicator of the number of cells that survived, and reproducibility was confirmed by three experiments.
The rate of cell proliferation (%)=OD550(sample)/OD550(control)

| Structure (SMILES) | cytotoxicity in macrophage cell line RAW264.7 |
| --- | --- |
| CC(=O)/C=C/c1ccc(C)c(O)c1 [KP2, (E)-4-(3-hydroxy-4-methylphenyl)but-3-en-2-one] | weak cytotoxicity |
| CC(=O)/C=C/c1ccc(F)c(O)c1 [KP3, (E)-4-(4-fluoro-3-hydroxyphenyl)but-3-en-2-one] | weak cytotoxicity |
| COc1cc(/C=C/C(C)=O)ccc1O [KP4, (E)-4-(4-hydroxy-3-methoxyphenyl)-3-buten-2-one] | weak cytotoxicity |
| COc1ccc(/C=C/C(C)=O)cc1O [KP5, (E)-4-(3-hydroxy-4-methoxyphenyl)-3-buten-2-one] | weak cytotoxicity |

— US11629121B2, “Benzylideneacetone derivative and use thereof” (KORPHARM CO., LTD., priority 2017, dated 2023)
